At least one structure is not confirmed: it was looked up by name or label, or the drawing left a doubt.
Tests used:
[1] = system: fungus; conditions: stated as well known; cited from earlier work
[2] = system: tri5 promoter; format: cell-based, Gibberella zeae
[3] = system: ipnA promoter; format: cell-based, Aspergillus nidulans

Structure (SMILES): O=C(/C=C/C=C/c1ccc2c(c1)OCO2)N1CCCCC1 [piperine, reference compound]
- Fungus growth [1]: inhibits fungus growth
- Transcription from the tri5 promoter (GUS) [2]: inhibited
- Transcription from the ipnA promoter (GUS) [3]: not and unable to inhibit
